Results are given in words; binding and its absence hold for the method and conditions named. Some binding calls cover weakened binding; strength is not graded here. Tags and fused reporters may be left off the sequences shown.
Biological target: T1, AraQ, a TMD from the AraNPQ importer, fused to fragment T25 (B. subtilis) (UniProt P94530)
T1 sequence: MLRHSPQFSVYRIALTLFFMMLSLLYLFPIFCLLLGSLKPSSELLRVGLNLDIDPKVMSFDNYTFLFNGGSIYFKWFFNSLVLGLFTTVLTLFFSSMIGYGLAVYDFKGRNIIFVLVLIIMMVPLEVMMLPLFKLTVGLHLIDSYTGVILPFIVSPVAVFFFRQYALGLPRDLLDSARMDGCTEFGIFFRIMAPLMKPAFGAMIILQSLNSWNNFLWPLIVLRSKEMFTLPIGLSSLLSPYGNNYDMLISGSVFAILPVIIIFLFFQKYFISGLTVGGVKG
Assay: two-hybrid; bacterial adenylate cyclase two-hybrid (B2H) in E. coli BTH101; ATPases fused to T18 (pUT18), TMDs fused to T25 (pKT25 or pKNT25); LB with antibiotics and 0.5 mM IPTG, 30°C; β-galactosidase activity and spotting on X-Gal plates

binding: binds
B1: MsmX, multitask nucleotide-binding domain (NBD, ATPase), fused to fragment T18 (enzyme, UniProt P94360 1-365)
chain: MAELRMEHIYKFYDQKEPAVDDFNLHIADKEFIVFVGPSGCGKSTTLRMVAGLEEISKGDFYIEGKRVNDVAPKDRDIAMVFQNYALYPHMTVYDNIAFGLKLRKMPKPEIKKRVEEAAKILGLEEYLHRKPKALSGGQRQRVALGRAIVRDAKVFLMDEPLSNLDAKLRVQMRAEIIKLHQRLQTTTIYVTHDQTEALTMATRIVVMKDGKIQQIGTPKDVYEFPENVFVGGFIGSPAMNFFKGKLTDGLIKIGSAALTVPEGKMKVLREKGYIGKEVIFGIRPEDIHDELIVVESYKNSSIKAKINVAELLGSEIMIYSQIDNQDFIARIDARLDIQSGDELTVAFDMNKGHFFDSETEVRIR

Source: publication PMC12632257
